Consider three substances from publication PMC6586911.

Protein sequences, listed by entry. Tags and fused reporters are not part of them.
UniProt Q16763: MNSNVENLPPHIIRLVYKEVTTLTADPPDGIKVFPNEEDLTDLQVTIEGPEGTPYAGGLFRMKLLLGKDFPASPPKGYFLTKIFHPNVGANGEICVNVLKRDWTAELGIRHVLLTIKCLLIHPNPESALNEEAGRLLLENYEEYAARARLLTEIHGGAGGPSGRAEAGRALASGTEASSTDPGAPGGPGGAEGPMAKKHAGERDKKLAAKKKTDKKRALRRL
UniProt P40337: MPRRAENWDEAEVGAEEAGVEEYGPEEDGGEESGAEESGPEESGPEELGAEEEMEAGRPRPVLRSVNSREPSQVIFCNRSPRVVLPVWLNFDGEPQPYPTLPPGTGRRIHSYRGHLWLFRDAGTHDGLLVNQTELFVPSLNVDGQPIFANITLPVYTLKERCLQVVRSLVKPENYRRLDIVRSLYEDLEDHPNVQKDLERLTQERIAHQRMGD

Results are given in words; binding and its absence hold for the method and conditions named. For part of these data: In cells and extracts the contact can be indirect. Some results given as binding are weak or reduced against the parent protein; the word gives no strength.

The target of experiment [1] is GST-UCP (expressed in 293T cells) (UniProt Q16763). The experiment can be described thus: pull-down + co-IP; 293T cells transfected with GST-UCP, HA-VHL, F-HBx and/or GST expression vector (10 μg each), 24 h; GST pull-down and IP from lysates.
The target in experiment [2] is GST-UCP protein (expressed in bacteria) (UniProt Q16763). The experiment can be described thus: pull-down; purified GST-UCP (1 μg), His-pVHL (1 μg), F-HBx (0.5, 2 μg) and/or GST (1 μg) proteins mixed, 4 °C for 1 h; pull-down; both purified.
Experiment [3] concerns the target UCP (full-length UCP of the pull-downs of Supplementary Fig. 3; construct not shown) (UniProt Q16763). In words: pull-down; GST pull-down with deletion mutants of HBx and UCP (Supplementary Fig. 3b–e); legend and details not shown.

As for “HA-VHL (expressed in 293T cells) (from UniProt P40337 1-213)”, the binding result in experiment [1] was “binds”.

For the substance “His-pVHL protein (from UniProt P40337 1-213)”, the binding result in experiment [2] is “binds”.

For “pVHL (of the pull-downs of Supplementary Fig. 3; construct not shown) (from UniProt P40337 1-213)”, the binding entry in experiment [3] is on record as “binds”.
